T1: RNF128, RING finger protein 128 (mouse (endogenous in lung tissue)) (UniProt Q9D304)
T1 sequence: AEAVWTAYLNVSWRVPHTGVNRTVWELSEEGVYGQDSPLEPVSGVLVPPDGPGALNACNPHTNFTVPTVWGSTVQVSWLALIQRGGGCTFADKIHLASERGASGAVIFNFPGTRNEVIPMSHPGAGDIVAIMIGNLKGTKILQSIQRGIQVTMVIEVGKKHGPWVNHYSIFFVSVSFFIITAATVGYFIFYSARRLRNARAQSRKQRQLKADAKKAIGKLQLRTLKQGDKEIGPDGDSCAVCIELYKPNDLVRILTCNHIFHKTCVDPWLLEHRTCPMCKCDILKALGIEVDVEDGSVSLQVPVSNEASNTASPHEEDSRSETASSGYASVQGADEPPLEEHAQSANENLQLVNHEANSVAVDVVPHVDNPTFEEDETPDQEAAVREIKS

Protein sequences, listed by entry. Tags and fused reporters are not part of them. Lines headed by an entry give the natural chain unless they say otherwise; changes in a name come on top. Residues count along the entry.
UniProt P43276: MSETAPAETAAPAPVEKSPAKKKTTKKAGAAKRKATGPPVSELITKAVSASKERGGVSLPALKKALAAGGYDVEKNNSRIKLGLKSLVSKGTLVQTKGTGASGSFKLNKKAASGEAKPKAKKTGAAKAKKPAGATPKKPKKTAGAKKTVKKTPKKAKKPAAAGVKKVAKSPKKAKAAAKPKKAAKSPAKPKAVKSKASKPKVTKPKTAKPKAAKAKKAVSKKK
UniProt Q99PL5: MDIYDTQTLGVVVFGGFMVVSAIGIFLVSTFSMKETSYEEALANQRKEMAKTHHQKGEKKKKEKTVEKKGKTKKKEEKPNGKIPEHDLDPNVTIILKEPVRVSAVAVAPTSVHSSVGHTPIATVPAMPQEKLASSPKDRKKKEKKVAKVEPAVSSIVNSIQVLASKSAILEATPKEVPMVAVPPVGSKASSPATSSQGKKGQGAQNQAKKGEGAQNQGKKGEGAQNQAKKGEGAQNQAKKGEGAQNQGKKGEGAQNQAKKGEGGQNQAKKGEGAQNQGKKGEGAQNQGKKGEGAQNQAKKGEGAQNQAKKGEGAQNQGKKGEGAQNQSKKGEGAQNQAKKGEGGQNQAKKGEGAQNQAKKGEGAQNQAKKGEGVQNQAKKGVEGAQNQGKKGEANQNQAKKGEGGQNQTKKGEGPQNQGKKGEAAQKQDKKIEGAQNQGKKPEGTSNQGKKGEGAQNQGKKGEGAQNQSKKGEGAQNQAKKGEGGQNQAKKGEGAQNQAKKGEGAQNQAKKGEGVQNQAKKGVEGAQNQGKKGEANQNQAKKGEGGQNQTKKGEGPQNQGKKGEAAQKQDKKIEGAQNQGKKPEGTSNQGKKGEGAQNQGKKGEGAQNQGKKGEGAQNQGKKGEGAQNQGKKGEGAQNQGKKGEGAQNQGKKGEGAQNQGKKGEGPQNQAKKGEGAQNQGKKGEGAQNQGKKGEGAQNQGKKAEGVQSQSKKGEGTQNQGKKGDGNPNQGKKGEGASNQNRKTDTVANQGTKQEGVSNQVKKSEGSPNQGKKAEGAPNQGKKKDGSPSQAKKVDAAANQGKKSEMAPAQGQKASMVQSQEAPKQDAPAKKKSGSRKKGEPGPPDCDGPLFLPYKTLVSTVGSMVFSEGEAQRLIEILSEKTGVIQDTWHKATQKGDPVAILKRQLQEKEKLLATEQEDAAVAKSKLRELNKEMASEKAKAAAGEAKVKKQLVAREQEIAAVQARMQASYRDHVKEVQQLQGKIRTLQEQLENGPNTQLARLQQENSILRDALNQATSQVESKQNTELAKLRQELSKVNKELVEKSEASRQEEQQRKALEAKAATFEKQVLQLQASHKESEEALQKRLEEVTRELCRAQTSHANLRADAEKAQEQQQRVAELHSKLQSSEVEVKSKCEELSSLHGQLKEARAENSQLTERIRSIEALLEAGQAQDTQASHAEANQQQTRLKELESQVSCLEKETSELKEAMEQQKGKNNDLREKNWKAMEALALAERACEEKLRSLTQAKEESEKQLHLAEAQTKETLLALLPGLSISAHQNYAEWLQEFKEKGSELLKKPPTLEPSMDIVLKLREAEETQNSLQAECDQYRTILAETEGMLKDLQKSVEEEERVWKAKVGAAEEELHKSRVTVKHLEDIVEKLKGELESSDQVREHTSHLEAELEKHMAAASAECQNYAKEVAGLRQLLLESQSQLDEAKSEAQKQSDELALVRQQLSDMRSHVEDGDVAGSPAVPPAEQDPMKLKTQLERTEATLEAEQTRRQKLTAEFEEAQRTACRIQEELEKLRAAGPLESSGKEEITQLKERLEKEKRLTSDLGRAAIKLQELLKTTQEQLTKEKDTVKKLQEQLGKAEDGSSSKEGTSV
UniProt O70133: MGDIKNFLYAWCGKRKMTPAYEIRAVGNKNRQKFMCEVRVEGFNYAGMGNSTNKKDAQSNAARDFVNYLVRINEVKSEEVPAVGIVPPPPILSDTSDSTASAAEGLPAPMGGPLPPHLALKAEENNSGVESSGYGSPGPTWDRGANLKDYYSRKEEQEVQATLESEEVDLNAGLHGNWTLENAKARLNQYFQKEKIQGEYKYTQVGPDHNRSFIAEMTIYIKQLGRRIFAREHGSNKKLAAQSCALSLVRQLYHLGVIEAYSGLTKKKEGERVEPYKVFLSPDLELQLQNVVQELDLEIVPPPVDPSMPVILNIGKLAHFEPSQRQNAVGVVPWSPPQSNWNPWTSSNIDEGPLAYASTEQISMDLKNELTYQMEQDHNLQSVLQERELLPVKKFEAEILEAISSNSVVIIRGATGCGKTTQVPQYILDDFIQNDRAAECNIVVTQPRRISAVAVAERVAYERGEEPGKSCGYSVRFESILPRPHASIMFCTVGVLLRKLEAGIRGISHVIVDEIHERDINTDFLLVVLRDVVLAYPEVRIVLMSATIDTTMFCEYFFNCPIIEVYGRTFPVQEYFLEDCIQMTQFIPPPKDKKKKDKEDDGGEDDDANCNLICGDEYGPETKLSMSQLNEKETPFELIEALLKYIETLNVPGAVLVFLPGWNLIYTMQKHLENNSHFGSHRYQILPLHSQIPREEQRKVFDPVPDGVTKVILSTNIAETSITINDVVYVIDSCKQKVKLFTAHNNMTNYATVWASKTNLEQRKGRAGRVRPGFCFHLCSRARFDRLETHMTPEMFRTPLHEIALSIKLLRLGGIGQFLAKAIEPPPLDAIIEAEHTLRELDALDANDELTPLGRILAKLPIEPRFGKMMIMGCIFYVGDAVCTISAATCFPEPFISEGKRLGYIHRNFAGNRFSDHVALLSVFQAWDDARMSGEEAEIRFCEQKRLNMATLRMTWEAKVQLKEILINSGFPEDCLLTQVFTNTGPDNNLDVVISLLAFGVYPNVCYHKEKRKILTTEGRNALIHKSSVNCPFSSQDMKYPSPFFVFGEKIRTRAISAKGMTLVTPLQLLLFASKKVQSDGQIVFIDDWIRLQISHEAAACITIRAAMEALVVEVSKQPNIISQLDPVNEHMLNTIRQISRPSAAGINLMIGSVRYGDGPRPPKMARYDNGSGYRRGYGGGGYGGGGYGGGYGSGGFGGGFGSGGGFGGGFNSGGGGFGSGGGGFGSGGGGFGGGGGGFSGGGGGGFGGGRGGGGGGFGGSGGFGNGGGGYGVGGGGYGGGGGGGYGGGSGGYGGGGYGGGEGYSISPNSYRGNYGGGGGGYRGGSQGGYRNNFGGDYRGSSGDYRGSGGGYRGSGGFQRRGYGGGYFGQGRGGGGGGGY
UniProt P01899, residues 25-362: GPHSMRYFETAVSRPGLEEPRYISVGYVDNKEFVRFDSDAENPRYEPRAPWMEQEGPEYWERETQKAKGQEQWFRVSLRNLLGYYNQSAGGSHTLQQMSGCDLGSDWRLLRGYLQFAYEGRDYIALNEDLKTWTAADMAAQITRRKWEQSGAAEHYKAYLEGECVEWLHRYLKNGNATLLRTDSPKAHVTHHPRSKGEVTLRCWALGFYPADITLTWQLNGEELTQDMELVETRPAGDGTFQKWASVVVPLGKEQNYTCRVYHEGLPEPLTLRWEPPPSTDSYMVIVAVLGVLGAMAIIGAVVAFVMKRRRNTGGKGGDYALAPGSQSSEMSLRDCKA
UniProt P61327: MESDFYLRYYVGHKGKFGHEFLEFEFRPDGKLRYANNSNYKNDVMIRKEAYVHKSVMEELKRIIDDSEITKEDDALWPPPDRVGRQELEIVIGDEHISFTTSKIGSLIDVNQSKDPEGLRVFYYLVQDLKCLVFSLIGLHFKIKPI
UniProt P20029, residues 20-655: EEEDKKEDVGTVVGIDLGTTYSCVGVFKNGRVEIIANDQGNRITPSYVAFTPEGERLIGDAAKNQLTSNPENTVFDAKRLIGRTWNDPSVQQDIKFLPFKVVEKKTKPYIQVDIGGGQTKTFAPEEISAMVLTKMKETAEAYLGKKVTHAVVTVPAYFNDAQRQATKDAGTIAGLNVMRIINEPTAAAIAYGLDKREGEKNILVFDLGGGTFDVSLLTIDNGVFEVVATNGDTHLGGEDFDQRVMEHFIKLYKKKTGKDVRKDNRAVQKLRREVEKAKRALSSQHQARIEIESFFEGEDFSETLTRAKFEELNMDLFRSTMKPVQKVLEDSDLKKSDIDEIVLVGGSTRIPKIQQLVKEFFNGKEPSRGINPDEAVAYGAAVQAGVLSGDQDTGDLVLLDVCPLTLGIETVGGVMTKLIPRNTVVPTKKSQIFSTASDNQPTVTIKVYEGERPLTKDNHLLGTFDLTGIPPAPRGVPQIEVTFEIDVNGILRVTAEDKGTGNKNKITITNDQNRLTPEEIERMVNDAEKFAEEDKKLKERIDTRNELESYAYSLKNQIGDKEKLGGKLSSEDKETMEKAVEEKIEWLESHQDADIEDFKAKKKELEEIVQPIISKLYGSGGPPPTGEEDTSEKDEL
UniProt P20918: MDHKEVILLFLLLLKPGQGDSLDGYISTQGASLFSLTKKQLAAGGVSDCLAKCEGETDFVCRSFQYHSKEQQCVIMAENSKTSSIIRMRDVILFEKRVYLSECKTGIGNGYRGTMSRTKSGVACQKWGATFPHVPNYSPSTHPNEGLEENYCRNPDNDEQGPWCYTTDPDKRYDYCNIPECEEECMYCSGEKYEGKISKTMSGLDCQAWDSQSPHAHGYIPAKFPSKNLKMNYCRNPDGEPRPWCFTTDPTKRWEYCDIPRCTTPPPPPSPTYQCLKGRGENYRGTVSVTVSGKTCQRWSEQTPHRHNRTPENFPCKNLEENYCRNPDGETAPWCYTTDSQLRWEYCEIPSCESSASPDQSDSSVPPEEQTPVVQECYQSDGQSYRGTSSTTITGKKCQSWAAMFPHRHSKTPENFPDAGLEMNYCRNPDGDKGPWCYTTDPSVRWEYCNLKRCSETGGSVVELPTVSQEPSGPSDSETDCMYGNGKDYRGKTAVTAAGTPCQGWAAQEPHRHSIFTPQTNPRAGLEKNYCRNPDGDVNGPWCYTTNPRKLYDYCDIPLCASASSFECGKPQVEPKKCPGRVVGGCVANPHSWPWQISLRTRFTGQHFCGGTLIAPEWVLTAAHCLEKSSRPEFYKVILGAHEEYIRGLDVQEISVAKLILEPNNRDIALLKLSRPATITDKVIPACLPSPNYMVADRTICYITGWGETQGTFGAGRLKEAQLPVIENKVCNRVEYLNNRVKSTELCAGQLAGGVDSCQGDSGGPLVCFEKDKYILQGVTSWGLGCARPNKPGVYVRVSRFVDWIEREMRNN
UniProt Q9WUU8: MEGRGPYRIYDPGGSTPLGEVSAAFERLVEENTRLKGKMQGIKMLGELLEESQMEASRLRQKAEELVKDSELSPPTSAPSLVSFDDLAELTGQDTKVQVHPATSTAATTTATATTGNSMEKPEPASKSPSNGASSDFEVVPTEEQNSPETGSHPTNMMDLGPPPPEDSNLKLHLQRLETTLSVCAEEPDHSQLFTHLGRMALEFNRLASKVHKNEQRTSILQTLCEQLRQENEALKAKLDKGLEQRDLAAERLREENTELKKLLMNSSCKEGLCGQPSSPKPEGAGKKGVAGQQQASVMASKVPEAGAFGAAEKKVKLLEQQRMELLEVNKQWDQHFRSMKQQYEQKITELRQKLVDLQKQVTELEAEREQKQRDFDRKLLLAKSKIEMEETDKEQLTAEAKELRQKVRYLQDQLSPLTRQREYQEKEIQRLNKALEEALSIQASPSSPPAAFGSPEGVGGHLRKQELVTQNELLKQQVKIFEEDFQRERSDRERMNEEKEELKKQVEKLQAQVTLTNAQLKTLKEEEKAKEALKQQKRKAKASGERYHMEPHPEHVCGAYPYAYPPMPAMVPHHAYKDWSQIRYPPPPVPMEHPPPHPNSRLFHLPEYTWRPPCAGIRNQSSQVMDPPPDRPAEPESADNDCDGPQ
UniProt Q8VEK3: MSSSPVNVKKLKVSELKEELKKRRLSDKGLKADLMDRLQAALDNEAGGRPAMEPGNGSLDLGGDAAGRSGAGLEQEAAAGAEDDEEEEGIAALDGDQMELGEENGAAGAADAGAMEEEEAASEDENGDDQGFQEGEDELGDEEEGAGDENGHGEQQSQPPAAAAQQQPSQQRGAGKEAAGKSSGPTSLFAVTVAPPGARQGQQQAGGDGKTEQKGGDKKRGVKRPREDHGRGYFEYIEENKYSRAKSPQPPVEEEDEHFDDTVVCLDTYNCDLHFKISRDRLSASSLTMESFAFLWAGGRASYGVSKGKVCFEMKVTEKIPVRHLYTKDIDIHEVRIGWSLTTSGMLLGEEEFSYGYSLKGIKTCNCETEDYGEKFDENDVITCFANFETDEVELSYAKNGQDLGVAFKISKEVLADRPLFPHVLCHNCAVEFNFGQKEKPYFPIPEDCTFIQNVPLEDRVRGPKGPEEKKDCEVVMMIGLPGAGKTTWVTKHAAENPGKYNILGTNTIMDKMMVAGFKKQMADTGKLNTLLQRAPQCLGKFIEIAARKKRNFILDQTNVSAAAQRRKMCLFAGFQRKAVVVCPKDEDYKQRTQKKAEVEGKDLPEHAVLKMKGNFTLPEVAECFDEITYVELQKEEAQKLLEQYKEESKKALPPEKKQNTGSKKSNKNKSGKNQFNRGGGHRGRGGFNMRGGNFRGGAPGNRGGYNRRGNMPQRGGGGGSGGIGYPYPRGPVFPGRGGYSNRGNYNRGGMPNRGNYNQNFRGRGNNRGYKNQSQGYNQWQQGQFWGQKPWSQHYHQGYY

B1: Neutrophilic granule protein (protein, UniProt O08692 22-167)
chain: LRQLRYEEIVDRAIEAYNQGRQGRPLFRLLSATPPSSQNPATNIPLQFRIKETECTSTQERQPKDCDFLEDGEERNCTGKFFRRRQSTSLTLTCDRDCSREDTQETSFNDKQDVSEKEKFEDVPPHIRNIYEDAKYDIIGNILKNF
B2: Dimethylaniline monooxygenase [N-oxide-forming] 2 (protein, UniProt Q8K2I3 1-535)
chain: MAKKVVVIGAGVSGLISLKCCVDEGLEPTCFERTEDIGGLWRFKENVEDGRASIYRSVITNTSKEMSCFSDFPMPEDFPNFLHNSKLLEYFRIFAKKFDLLKYIQFQTTVISVKKRPDFASSGQWEVYTQSNGKEQRTVFDAVMVCSGHHIQPHLPLKSFPGIERFRGQYFHSREYKHPVGFEGKRILVVGIGNSAADIASELSKTAAQVFVSTRHGSWVMSRISEDGYPWDMVFHTRFSSMLRNVLPRTVVKWMMEQQMNRWFNHENYGLVPQNKYLMKEPVLNDDLPSRLLYGAIKVKTRVKELTETAVVFEDGTVEEDVDIIVFATGYTFSFSFLEDSLVKVEDNRVSLYKAMFPPHLEKPTLACIGLIQPLGSIFPTVELQARWATRVFKGLCSLPSETTMMADIVERNEKRVNLFGKSQSQILQTNYVDYLDELALEIGAKPDFVSLFFKDPKLAVKLYFGPCNSYQYRLVGPGQWEGARNAILTQKQRILKPLKTRTLQSSDSAPVSFLLKILGLLAVVLAFFFQLQGF

Results are given in words; binding and its absence hold for the method and conditions named. Binding seen in cells or lysates may run through a third protein. Here binding means that the protein was enriched with, or labelled near, the bait; the list need not be complete.

The assay addresses T1, RNF128, RING finger protein 128 (mouse (endogenous in lung tissue)). As to the kind of experiment: affinity purification with mass spectrometry; whole lung tissue lysates from WT and WT-LPS mice immunoprecipitated using the RNF128 antibody; trypsin digest, LC-MS/MS; hits at least 2-fold more abundant in WT-LPS than in WT.
Consider “Serine/arginine-rich splicing factor 1 (from UniProt Q6PDM2 1-248)”, for which the binding result is reported as “binds”.
On to “Histone H1.5 (from UniProt P43276 1-223)”, for which the binding result was “binds”.
With “Ribosome-binding protein 1 (from UniProt Q99PL5 1-1605)”, the binding entry is recorded as “binds”.
Moesin (from UniProt P26041 1-577): the binding result was “binds”.
Consider “ATP-dependent RNA helicase A (from UniProt O70133 1-1380)”, for which the binding entry is listed as “binds”.
On to “H-2 class I histocompatibility antigen, D-B alpha chain (from UniProt P01899 25-362)”, for which the binding result was “binds”.
As for “Protein mago nashi homologue (from UniProt P61327 1-146)”, the binding entry is “binds”.
As for “Endoplasmic reticulum chaperone BiP (from UniProt P20029 20-655)”, the binding entry is recorded as “binds”.
Turning to Plasminogen (from UniProt P20918), the binding result was “binds”.
Then “Microtubule-associated protein 4 (from UniProt P27546 1-1125)”, with “binds”; and “Na(+)/H(+) exchange regulatory cofactor NHE-RF2 (from UniProt Q9JHL1 1-337)”, with “binds”; and Talin-1 (from UniProt P26039 1-2541), with “binds”.
Myeloperoxidase (from UniProt P11247): the binding entry is “binds”.
In the case of “TNFAIP3-interacting protein 1 (from UniProt Q9WUU8 1-647)”, the binding result is given as “binds”.
Turning to “Heterogeneous nuclear ribonucleoprotein U (from UniProt Q8VEK3 1-800)”, the binding entry is given as “binds”.
Take “Heterogeneous nuclear ribonucleoprotein K (from UniProt P61979 1-463)”: the binding result is recorded as “binds”.
B1: the binding result is “binds”.
As to B2, the binding result was “binds”.

(Values after article PMC10284794.)
